Laboratory results taken from publication doi:10.1101/2021.03.31.437839.
No constants are given. Whether binding was seen depends on the method and setting. Binding seen in cells or lysates may run through a third protein. A yes stands for co-enrichment or nearness to the bait. Other partners may have been found. Values belong to the molecule of their own block, whether it stands above or below them.

Target: HA-JICD1 (JAG1 intracellular domain) (human) (UniProt P78504)
Assay: affinity purification with mass spectrometry

binding: binds
Molecule: HSPA5 (Heat Shock Protein Family A Member 5) (from UniProt P11021 19-654)

binding: binds
Molecule: DDX17 (DEAD-Box Helicase 17) found with JICD1 by mass spectrometry (from UniProt Q92841 1-729)

binding: binds
B1: PDIA6 (Protein Disulfide Isomerase Family A Member 6) (protein, UniProt Q15084 20-440)
chain: LYSSSDDVIELTPSNFNREVIQSDSLWLVEFYAPWCGHCQRLTPEWKKAATALKDVVKVGAVDADKHHSLGGQYGVQGFPTIKIFGSNKNRPEDYQGGRTGEAIVDAALSALRQLVKDRLGGRSGGYSSGKQGRSDSSSKKDVIELTDDSFDKNVLDSEDVWMVEFYAPWCGHCKNLEPEWAAAASEVKEQTKGKVKLAAVDATVNQVLASRYGIRGFPTIKIFQKGESPVDYDGGRTRSDIVSRALDLFSDNAPPPELLEIINEDIAKRTCEEHQLCVVAVLPHILDTGAAGRNSYLEVLLKLADKYKKKMWGWLWTEAGAQSELETALGIGGFGYPAMAAINARKMKFALLKGSFSEQGINEFLRELSFGRGSTAPVGGGAFPTIVEREPWDGRDGELPVEDDIDLSDVELDDLGKDEL
